Data reported in publication PMC6155776, “Synthesis of Novel Pyrazinamide Derivatives Based on 3-Chloropyrazine-2-carboxamide and Their Antimicrobial Evaluation” (Molecules : A Journal of Synthetic Chemistry and Natural …, 2017).

Test system: HepG2 cell line

SMILES	SI (IC50/MIC)
NC(=O)c1nccnc1NCc1ccc(C(F)(F)F)cc1 [Compound 12, 3-[(4-Trifluoromethylbenzyl)amino]pyrazine-2-carboxamide]	1.4
NC(=O)c1nccnc1NCc1cccc(C(F)(F)F)c1 [Compound 4, 3-[(3-Trifluoromethylbenzyl)amino]pyrazine-2-carboxamide]	1.8
